Taken from: PubChem BioAssay AID504808 (Drosophila RNAi Screening Center, 2011)
The screen tested about 21,000 reagents; shown is a random part of those with a known target gene and a result. Of all reagents, 18 (0.084%) were called active. 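Raw counts without plate normalisation, one of two replicates; the ratio scores behind the calls were not deposited.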 A plus sign joins genes that one reagent is predicted to hit. Not given: the amount of reagent, the time to read-out.

- Test: 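Chromatin factors that keep E2F targets switched off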 (primary screen)
- Cells: Drosophila S2 cells
- Knock-down reagent: long dsRNA against Drosophila genes
- Measurement: 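Dual luciferase plate measurements; E2F-specific signal taken as firefly over Renilla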
- Direction: E2F firefly: higher = more E2F reporter activity; Renilla normaliser: higher = more normaliser reporter signal
- Call rule: 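Called active if the normalised E2F reporter went up by over 50%; the cutoff is arbitrary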

The first 5 records as a preview:
Target gene	dsRNA	E2F firefly, rep 1	Renilla normaliser, rep 1	activity call
CG16786 (GeneID 37856)	DRSC04281	1.18e5	4902	inactive
Obp93a (GeneID 42506)	DRSC15220	1.47e5	7947	inactive
Rgk2 (GeneID 37132)	DRSC06503	1.40e5	4994	inactive
Glut3 (GeneID 42036)	DRSC16681	1.18e5	5794	inactive
fd96Cb (GeneID 43011)	DRSC16947	99980	6128	inactive

Results, from the start:
Target gene	dsRNA	E2F firefly, rep 1	Renilla normaliser, rep 1	activity call
CG16786 (GeneID 37856)	DRSC04281	1.18e5	4902	inactive
Obp93a (GeneID 42506)	DRSC15220	1.47e5	7947	inactive
Rgk2 (GeneID 37132)	DRSC06503	1.40e5	4994	inactive
Glut3 (GeneID 42036)	DRSC16681	1.18e5	5794	inactive
fd96Cb (GeneID 43011)	DRSC16947	99980	6128	inactive
dyw (GeneID 31252)	DRSC18228	1.18e5	6314	inactive
CG15024 (GeneID 50172)	DRSC08478	91820	3763	inactive
CG14883 (GeneID 41997)	DRSC15007	1.02e5	4807	inactive
FoxP (GeneID 41182)	DRSC15159	1.39e5	5359	inactive
CG14441 (GeneID 31611)	DRSC17934	76946	4371	inactive
CG17121 (GeneID 42721)	DRSC15176	1.07e5	6225	inactive
CG12377 (retired record) (GeneID 40473)	DRSC11671	1.22e5	5726	inactive
CG12377 (retired record) (GeneID 40473)	DRSC11672	1.24e5	5844	inactive
CG42673 (GeneID 39111)	DRSC08989	1.27e5	4267	inactive
CG42673 (GeneID 39111)	DRSC08991	87924	2725	inactive
CG42673 (GeneID 39111)	DRSC10177	1.22e5	7062	inactive
CG42673 (GeneID 39111)	DRSC10264	1.28e5	7168	inactive
CG42673 (GeneID 39111)	DRSC10353	45843	284	inactive
CG42673 (GeneID 39111)	DRSC10354	76582	4201	inactive
sba (GeneID 42824)	DRSC13643	67142	1857	inactive
sba (GeneID 42824)	DRSC17050	1.18e5	6596	inactive
CG6985 (GeneID 42694)	DRSC16164	63836	3248	inactive
sfl (GeneID 38736)	DRSC08828	1.34e5	4561	inactive
sfl (GeneID 38736)	DRSC08830	1.27e5	5436	inactive
CG7131 (GeneID 42197)	DRSC16203	61163	2636	inactive
HemK2 + Snapin	DRSC00736	1.08e5	4184	inactive
HemK2 + Snapin	DRSC00737	1.57e5	5289	inactive
CG33110 (GeneID 42659)	DRSC14694	56026	3520	inactive
CG33110 (GeneID 42659)	DRSC16137	1.04e5	5202	inactive
Qsox4 (GeneID 318720)	DRSC14224	80403	3644	inactive
Pss (GeneID 40281)	DRSC11757	1.43e5	8474	inactive
Rbpn-5 (GeneID 37395)	DRSC04440	83960	2971	inactive
tfc (GeneID 38141)	DRSC07953	1.31e5	3730	inactive
tfc (GeneID 38141)	DRSC07954	1.23e5	3853	inactive
tfc (GeneID 38141)	DRSC08626	70132	3270	inactive
CG31262 (GeneID 318649)	DRSC13216	79192	2330	inactive
M6 (GeneID 40383)	DRSC11869	1.30e5	5605	inactive
CR31958 (GeneID 33603)	DRSC00282	1.41e5	5560	inactive
Vps13 (GeneID 35693)	DRSC06817	1.44e5	4521	inactive
Rnp4F (GeneID 31448)	DRSC18706	7523	780	inactive
CG14014 (GeneID 33784)	DRSC02345	1.44e5	5002	inactive
dah (GeneID 32459)	DRSC20320	7780	776	inactive
mthl3 (GeneID 36961)	DRSC06997	67555	3187	inactive
Flo2 (GeneID 32425)	DRSC19062	79130	2753	inactive
Flo2 (GeneID 32425)	DRSC20244	2.27e5	7330	inactive
chif (GeneID 34974)	DRSC03508	77330	3534	inactive
Art4 (GeneID 41219)	DRSC15779	1.39e5	5991	inactive
REG (GeneID 32274)	DRSC20273	1.27e5	6200	inactive
ND-PDSW (GeneID 44228)	DRSC00715	77418	3762	inactive
CG8520 (GeneID 36357)	DRSC07206	2925	181	inactive
Adh + Adhr	DRSC01862	84565	4086	inactive
Adh + Adhr	DRSC01863	1.02e5	3851	inactive
sowah (GeneID 39438)	DRSC09186	1.42e5	4708	inactive
sowah (GeneID 39438)	DRSC09758	75251	3820	inactive
CG7054 (GeneID 42643)	DRSC16185	63513	3061	inactive
CG17803 (GeneID 42141)	DRSC15275	1.40e5	7192	inactive
Mtap (GeneID 36955)	DRSC06890	74790	3616	inactive
CG31862 (GeneID 318989)	DRSC01245	1.32e5	5302	inactive
Rbcn-3A (GeneID 31557)	DRSC18314	80232	4437	inactive
robo2 (GeneID 44522)	DRSC00377	1.54e5	5686	inactive
robo2 (GeneID 44522)	DRSC00378	1.70e5	5864	inactive
robo2 (GeneID 44522)	DRSC00686	1.68e5	5747	inactive
robo2 (GeneID 44522)	DRSC00691	75754	3055	inactive
RasGAP1 (GeneID 39158)	DRSC11172	1.27e5	7804	inactive
CG4928 (GeneID 32682)	DRSC19342	1.80e5	5648	inactive
p-cup (GeneID 32727)	DRSC19513	2.25e5	7946	inactive
Tnks (GeneID 43095)	DRSC14154	1.31e5	6571	inactive
Ac3 (GeneID 35419)	DRSC03692	78961	4023	inactive
Cyp28d2 (GeneID 33748)	DRSC03299	1.37e5	4595	inactive
CG15638 (GeneID 34768)	DRSC01875	92140	4151	inactive
Cyp28a5 (GeneID 34817)	DRSC03297	86305	3432	inactive
Xe7 (GeneID 40699)	DRSC12307	1.21e5	5355	inactive
CG18765 (GeneID 59149)	DRSC15392	1.45e5	6962	inactive
CG10943 (GeneID 39462)	DRSC09805	1.08e5	3908	inactive
B-H2 (GeneID 32723)	DRSC19335	86777	4209	inactive
LanA (GeneID 38723)	DRSC11207	63644	2892	inactive
SMC3 (GeneID 32627)	DRSC20227	1.51e5	6579	inactive
CG13010 (GeneID 32643)	DRSC19529	1.38e5	6876	inactive
Wdfy2 (GeneID 34425)	DRSC02822	83369	3658	inactive
DCTN1-p150 (GeneID 39536)	DRSC11175	80567	3462	inactive
alpha-Man-Ib (GeneID 43436)	DRSC14418	1489	948	inactive
Ube4B (GeneID 34699)	DRSC03277	70252	3814	inactive
CG15226 (retired record) (GeneID 37353)	DRSC03829	1.26e5	4242	inactive
CG15226 (retired record) (GeneID 37353)	DRSC04233	96276	4016	inactive
